Reference: paper doi:10.1101/2022.08.28.505601
No constants are given. Whether binding was seen depends on the method and setting. Binding seen in cells or lysates may run through a third protein. Some entries that bind do so weakly or less than the wild type. Tags and fused reporters may be left off the sequences shown.

Amino acid sequences for entries named in this document (tags omitted). A change or cut given only in a name is not applied to a line headed by its entry. Chains listed by the source or under a name are the forms on record and can include a tag or linker.
Promyelocytic Leukemia Protein isoform IV fused to mRED (P29590, form named): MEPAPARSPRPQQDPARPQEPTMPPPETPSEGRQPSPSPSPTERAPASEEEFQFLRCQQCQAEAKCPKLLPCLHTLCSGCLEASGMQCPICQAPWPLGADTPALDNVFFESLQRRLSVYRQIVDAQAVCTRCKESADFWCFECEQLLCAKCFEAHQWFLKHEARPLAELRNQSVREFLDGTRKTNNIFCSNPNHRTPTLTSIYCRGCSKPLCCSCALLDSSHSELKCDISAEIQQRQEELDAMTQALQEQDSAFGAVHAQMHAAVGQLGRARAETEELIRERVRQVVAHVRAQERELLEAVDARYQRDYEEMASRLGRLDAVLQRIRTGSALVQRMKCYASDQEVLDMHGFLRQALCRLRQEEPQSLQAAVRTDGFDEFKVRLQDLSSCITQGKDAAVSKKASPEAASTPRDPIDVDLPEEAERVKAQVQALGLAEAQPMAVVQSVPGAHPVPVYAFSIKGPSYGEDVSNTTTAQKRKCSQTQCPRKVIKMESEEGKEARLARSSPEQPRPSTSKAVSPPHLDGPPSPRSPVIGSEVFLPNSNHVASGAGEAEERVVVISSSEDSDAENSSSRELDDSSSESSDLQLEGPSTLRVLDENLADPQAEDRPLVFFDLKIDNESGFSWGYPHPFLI
UniProt Q15672: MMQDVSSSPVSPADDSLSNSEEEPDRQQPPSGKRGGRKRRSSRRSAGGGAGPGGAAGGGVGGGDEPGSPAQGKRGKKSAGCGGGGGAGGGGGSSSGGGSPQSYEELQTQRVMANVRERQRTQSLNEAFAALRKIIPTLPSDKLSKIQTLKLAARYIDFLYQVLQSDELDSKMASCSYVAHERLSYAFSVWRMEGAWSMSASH
UniProt O95863: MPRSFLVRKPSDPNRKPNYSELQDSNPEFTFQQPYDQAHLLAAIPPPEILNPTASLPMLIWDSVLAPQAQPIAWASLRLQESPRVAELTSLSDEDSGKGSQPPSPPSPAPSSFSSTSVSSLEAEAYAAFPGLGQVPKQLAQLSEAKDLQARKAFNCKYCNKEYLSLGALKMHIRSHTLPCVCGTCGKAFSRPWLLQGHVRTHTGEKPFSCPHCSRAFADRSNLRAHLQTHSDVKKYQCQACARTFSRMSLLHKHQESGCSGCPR

B1: SLUG (SNAIL2) fused to GFP (protein, UniProt O43623 1-268)
chain: MPRSFLVKKHFNASKKPNYSELDTHTVIISPYLYESYSMPVIPQPEILSSGAYSPITVWTTAAPFHAQLPNGLSPLSGYSSSLGRVSPPPPSDTSSKDHSGSESPISDEEERLQSKLSDPHAIEAEKFQCNLCNKTYSTFSGLAKHKQLHCDAQSRKSFSCKYCDKEYVSLGALKMHIRTHTLPCVCKICGKAFSRPWLLQGHIRTHTGEKPFSCPHCNRAFADRSNLRAHLQTHSDVKKYQCKNCSKTFSRMSLLHKHEESGCCVAH
B2: TWIST2 HLH region alone (aa64 to aa124) (domain or fragment, UniProt Q8WVJ9 64-124)
chain: LQSQRILANVRERQRTQSLNEAFAALRKIIPTLPSDKLSKIQTLKLAARYIDFLYQVLQSD
B3: TWIST2 fused to GFP (protein, UniProt Q8WVJ9 1-160)
chain: MEEGSSSPVSPVDSLGTSEEELERQPKRFGRKRRYSKKSSEDGSPTPGKRGKKGSPSAQSFEELQSQRILANVRERQRTQSLNEAFAALRKIIPTLPSDKLSKIQTLKLAARYIDFLYQVLQSDEMDNKMTSCSYVAHERLSYAFSVWRMEGAWSMSASH

molecular target: Promyelocytic Leukemia Protein isoform IV fused to mRED (UniProt P29590); assay: co-IP

binding | Molecule
binds | TWIST1 fused to GFP (from UniProt Q15672 1-202)
binds | SNAIL1 fused to GFP (from UniProt O95863 1-264)
binds | B1
binds | B2
binds | B3
